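A cell-based FRET test of anthrax lethal toxin entry, tracked through the 460 nm emission signal; the cell line is not named here.
Each compound was tested as a concentration series from about 0.0005 to 40 µM.
The number is the fitted AC50 of the 460 nm signal alone; lower values mean a more potent effect. A falling signal goes with compounds filed as inhibitors or cytotoxic, a rising one with activators or fluorescent compounds (inferred from the filed classes).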

Values are in µM.
Common to all entries: measured here: 460 nm channel.
Part of the compounds only, not a random draw; the main read-out is not listed here.
A potency from a partial, single-point or poor curve is only a rough figure.
The first word of each remark tells which way the curve ran; it can be opposite to the aim of the assay.

| structure | AC50 (µM) | curve |
|---|---|---|
| `CCCCn1c(/N=C/c2cc(OC)ccc2O)nc2ccccc21` | 31.62 | falling, single point |
| `COc1ccc(C(=O)N2CCC3(CC2)CCN(c2ccccc2)CC3)cc1` | 7.943 | rising, partial curve |
| `O=S(=O)(c1ccccc1)N1CCC2(CCCN(Cc3ccccc3)C2)CC1` | 2.512 | falling, partial curve |
| `Cc1ccc(NC(=O)CS(=O)CC(=O)N(C2CCCC2)C(C)C(=O)NC2CCCCC2)cc1` (stereo not shown) | 1.995 | rising, full curve |
| `O=C(O)c1ccc(SSc2ccc(C(=O)O)cn2)nc1` | 2.512 | falling, partial curve |
| `CCc1cc(C=C(Cl)Cl)oc(=O)c1C` | 3.162 | rising, full curve, poor fit |
| `O=C(Cn1c2c(c(-c3ccccc3)cc1=O)CCCC2)N1CCCCCC1` | 12.59 | falling, partial curve |
| `Cc1c(O)c(CN2CCCC2)cc2c3c(c(=O)oc12)CCC3` | 10 | rising, partial curve |
| `CCCC(c1nnnn1CCOC)N1CCN(c2cccc(OC)c2)CC1` (stereo not shown) | 6.31 | rising, partial curve |
| `C=CCn1c(NC(C)c2cc(Cl)ccc2O)nc2ccccc21` (stereo not shown) | 3.981 | falling, partial curve |
| `Cc1ccc(C2Nc3ccccc3C(=O)N2Cc2ccco2)cc1` (stereo not shown) | 10 | rising, single point |
| `O=C(COc1ccc(S(=O)(=O)N2CCCC2)cc1Cl)N1CCN(c2ccccc2)CC1` | 5.012 | rising, single point |
| `CC(C)OC(=O)c1c(N)n(CC2CCCO2)c2nc3ccccc3nc12` (stereo not shown) | 3.162 | rising, full curve |
| `COc1cccc(-c2ccc3ncnc(NCc4cccs4)c3c2)c1` | 12.59 | falling, partial curve |
| `Nc1nnnn1CCO` | 3.162 | falling, single point |
| `Cn1nnnc1SCC(=O)Nc1ccc(Br)cc1Cl` | 1 | falling, single point |
| `O=[As](O)(O)c1ccc(Cc2ccc([As](=O)(O)O)cc2)cc1` | 0.3981 | falling, full curve |
| `CC(=O)c1c(O)c(C)c(O)c(Cc2c(O)c3c(c(C(=O)/C=C\c4ccccc4)c2O)OC(C)(C)C=C3)c1O` | 15.85 | falling, partial curve |
| `CCNc1ncc2nc(-c3ccc(Cl)cc3)c(=O)n(CCC#N)c2n1` | 1.995 | rising, full curve, poor fit |
| `CC1=C/C(=C\c2ccc3c(c2)OCO3)C(=O)S1` | 0.003162 | falling, full curve, poor fit |
| `O=C1C=C[C@@H](O)[C@H]2[C@@H]3C(=O)N(C4CCCCC4)C(=O)[C@@H]3CC[C@H]12` | 0.07943 | rising, partial curve |
| `O=C(c1ccccc1)c1coc2ccc(O)c(CN3CCOCC3)c12` | 0.3162 | rising, full curve, poor fit |
| `COCCNc1ncnc2ccc(-c3cccc(NS(C)(=O)=O)c3)cc12` | 0.1 | falling, full curve, poor fit |
| `CCOC(=O)c1c(C)[nH]c(C(=O)CSc2nnc(CC(C)c3ccccc3)o2)c1C` (stereo not shown) | 2.512 | falling, single point |
| `CCC1Oc2ccccc2N(CC(=O)Nc2ccc3c(c2)OCCO3)C1=O` (stereo not shown) | 12.59 | falling, partial curve, poor fit |
| `CN1[C@@H]2CC[C@H]1CC(OC(c1ccccc1)c1ccccc1)C2` (stereo partly shown) | 19.95 | falling, partial curve |
| `CCOc1ccc(OCC)c(NC(=O)C2CCCN(c3ncccn3)C2)c1` (stereo not shown) | 5.012 | rising, partial curve |
| `OCCN1CN=C(Nc2nc3ccccc3s2)NC1` | 0.003981 | falling, full curve |
| `N#C/C(=C/c1ccc(N2CCCCCC2)o1)c1ccc(F)cc1` | 10 | falling, partial curve |
| `O=C(Nc1ccc2c(c1)OCCO2)c1ccco1` | 7.943 | falling, partial curve |
| `COc1ccc(-c2nnc(SC)n2C)cc1` | 5.012 | falling, single point |
| `COc1ccc(Cl)cc1NC(=O)c1c(-c2ccccc2)noc1C` | 19.95 | rising, single point |
| `O=C(NCc1ccccn1)c1c(Cl)cccc1Cl` | 0.007943 | falling, full curve |
| `CCOc1ccc(C(=O)Cc2ccc3oc(C(=O)O)cc3c2)c(O)c1` | 5.012 | rising, single point |
| `COc1ccccc1N=Cc1c(O)n(C)c(=O)n(C)c1=O` | 25.12 | rising, single point |
| `NC(=O)c1ccsc1NC(=O)C1CCCN1S(=O)(=O)c1ccc(Cl)cc1` (stereo not shown) | 0.03981 | rising, full curve |
| `Cc1c[nH]c(=O)n(CCCN2CCN(c3ccccc3OCC(F)(F)F)CC2)c1=O` | 12.59 | falling, single point |
| `CCOC(=O)c1c(NC(=O)CSc2nnc(-c3ccccc3C)n2C)sc(C(C)=O)c1C` | 19.95 | falling, single point |
| `CN(C)C(=O)Oc1ccc(Cl)c2ccccc12` | 12.59 | falling, partial curve |
| `O=C(Nc1nc(-c2ccc3c(c2)OCCO3)cs1)c1ccc(S(=O)(=O)N2CCCCC2)cc1` | 10 | falling, partial curve |
| `O=C(c1cccc(F)c1)N1CCC2(CCN(Cc3ccncc3)CC2)CC1` | 6.31 | rising, partial curve |
| `CC1CCC(NC(=O)c2ccc(CS(=O)(=O)Cc3ccccc3F)o2)CC1` (stereo not shown) | 3.981 | rising, single point |
| `Cc1ccc(-c2nc(C3CCCN(S(=O)(=O)c4ccc(C)cc4)C3)no2)cc1` (stereo not shown) | 10 | falling, partial curve |
| `Cc1ccc(C)c(N(CC(=O)NCc2ccco2)C(=O)CCC(=O)Nc2ccccn2)c1` | 10 | rising, single point |
| `O=C(C1=C(O)C(=O)N(c2ncccn2)C1c1cccs1)c1ccco1` (stereo not shown) | 0.02512 | falling, full curve, poor fit |
| `COCCn1c(=O)c(-c2ccccc2)nc2cnc(Nc3ccccc3)nc21` | 12.59 | rising, partial curve |
| `Cc1ccc2nc3c(cc(C(=O)NCC4CCCO4)n3C)c(=O)n2c1` (stereo not shown) | 25.12 | rising, single point |
| `COc1ccc(NC(=O)c2c(NC(=O)CNCc3ccco3)sc3c2CCC3)c(OC)c1` | 19.95 | falling, single point |
| `O=C(COc1ncnc2ccccc12)NC(=O)NCc1ccccc1` | 25.12 | rising, single point |
| `Cc1[nH]nc2c1C(C(C)C)C(C#N)=C(N)O2` (stereo not shown) | 0.3981 | rising, partial curve |
| `c1ccc(Nc2ncncc2-c2ccc3c(c2)OCO3)cc1` | 0.003981 | falling, full curve, poor fit |
| `O=S(=O)(c1cccs1)N1CCN(Cc2ccccc2)CC1` | 5.012 | rising, single point |
| `O=S(=O)(c1ccccc1)N1CCC2(CC1)CN(C(c1ccccc1)c1ccccc1)C2` | 0.0631 | falling, partial curve, poor fit |
| `COc1ccc(C2=NOC(C(=O)N3CCN(c4ccccc4OC)CC3)C2)cc1` (stereo not shown) | 12.59 | falling, partial curve |
| `Cc1cc2ncn(-c3ncnc4sc(C)c(C)c34)c2cc1C` | 5.012 | rising, single point |
| `Cc1ccc(S(=O)(=O)NC(C)C(=O)NC2CCCCCC2)cc1` (stereo not shown) | 0.01585 | falling, single point |

The first 7 entries again:

structure,AC50 (µM),curve
CCCCn1c(/N=C/c2cc(OC)ccc2O)nc2ccccc21,31.62,"falling, single point"
COc1ccc(C(=O)N2CCC3(CC2)CCN(c2ccccc2)CC3)cc1,7.943,"rising, partial curve"
O=S(=O)(c1ccccc1)N1CCC2(CCCN(Cc3ccccc3)C2)CC1,2.512,"falling, partial curve"
Cc1ccc(NC(=O)CS(=O)CC(=O)N(C2CCCC2)C(C)C(=O)NC2CCCCC2)cc1 (stereo not shown),1.995,"rising, full curve"
O=C(O)c1ccc(SSc2ccc(C(=O)O)cn2)nc1,2.512,"falling, partial curve"
CCc1cc(C=C(Cl)Cl)oc(=O)c1C,3.162,"rising, full curve, poor fit"
O=C(Cn1c2c(c(-c3ccccc3)cc1=O)CCCC2)N1CCCCCC1,12.59,"falling, partial curve"

The results are deposited in PubChem (AID912; NCATS, 2007).